# Measured values: PubChem BioAssay AID624297 (National Center for Advancing Translational Sciences (NCATS), 2012)
# The campaign covered roughly 340,000 compounds. About 6,200 (1.8%) were called active. The inconclusive results got no clear call from the source; some entries with a clear call stand among them for comparison. Calls follow the shape of the dose curve; as a rule, active = well fitted activation curve with a large enough effect; inconclusive = small, poorly fitted or top-dose-only effect; inactive = no such curve, though single readings can be large or run the other way. Where the call is inconclusive, the potency comes from a doubtful curve fit.
# Experiment: A quantitative high throughput screen for small molecules that induce DNA re-replication in SW480 colon adenocarcinoma cells. Also: nearly all actives have a fitted effect of over 55% in size. As to re-replication activation: % of control where 0% means no effect.
# Conditions: Hoechst DNA content imaging, 48 h; re-replication activation: at 46.1 µM (top of the series) unless noted
# How it was run: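 Treated cells incubate 48 hr (37 C, 5% CO2), are stained 40 min with Hoechst, and nuclear fluorescence is enumerated; a rise in nuclei with high DNA signal marks re-replication.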
# Potency is read from the fitted curve at half-maximal effect.
Compound,Potency,re-replication activation
COc1ccc(C(=O)CSc2nnc(-c3cccs3)n2-c2ccccc2)cc1,inactive,
CCOC(=O)/C(C#N)=C/c1cc2ccc(C)cc2nc1Cl,"inconclusive: 25.9 µM [activator, partial curve, poor fit]",
COc1cnc(-c2ccccn2)nc1Sc1ccccc1,"inconclusive: 0.82 µM [activator, full curve, poor fit]",
Cc1ccccc1C(=O)c1cccn1CC(=O)NC(C)c1ccccc1 (stereo unspecified),"inconclusive: 0.13 µM [activator, full curve, poor fit]",
O=C(Nc1ccncc1)c1ccc(Cl)c(Cl)c1,inactive,
O=C(O)c1ccc(S(=O)(=O)N2CCOCC2)o1,"inconclusive: 29.1 µM [activator, single point]",
Fc1ccc(NC(=S)Nc2ccc(F)c(Cl)c2)cc1Cl,inactive,
O=C(Nc1cccc(S(=O)(=O)N2CCOCC2)c1)c1ccc2ccccc2n1,"inconclusive: 10.3 µM [activator, single point]",
CCCN1Cc2cc(OC)ccc2-c2ccccc2S1(=O)=O,inactive,
Cc1ccc(NS(=O)(=O)c2ccc(C(=O)NCCCN3CCCC3=O)cc2)cc1,inactive,
COc1ccc2c(c1)[C@H]1[C@H](CO2)[C@H](c2ccccc2)[C@]2(C)C(=O)Nc3ccccc3C(=O)N12,"inconclusive: 29.1 µM [activator, single point]",
CCc1ccc(-c2nc(CN3CCC(C(=O)N4CCN(c5ccccc5)CC4)CC3)c(C)o2)cc1,"inconclusive: 18.4 µM [activator, single point]",
Cc1nccn1-c1cc(C(C)(C)C)nc2c(-c3ccccc3)cnn12,"inconclusive: 6.51 µM [activator, single point]",
COc1ccc(NS(=O)(=O)c2cc(NC(=O)CCNC(C)=O)ccc2N2CCCCC2)cc1,inactive,
COC(CNC(=O)CCc1c(C)nc2c(-c3ccccc3)c(C)nn2c1C)OC,inactive,
Cc1ccc(C)c(S(=O)(=O)N2CCCC2CNC(=O)C(=O)NC2CCCCCC2)c1 (stereo unspecified),inactive,
CC(C)(C)c1ccc(OCCC(=O)Nc2cccc(S(=O)(=O)NC3=NCCCCC3)c2)cc1,"inconclusive: 29.1 µM [activator, single point]",
COc1cccc(NC(=O)Nc2ccc3c(c2)nc(C)n3C)c1,inactive,
CCCC[n+]1ccn(C2=C([O-])c3ccccc3C(=O)/C2=N\S(=O)(=O)c2ccc(Br)cc2)c1,inactive,
Cn1c(C(=O)N2CCN(c3cccc(C(F)(F)F)c3)CC2)cc2sccc21,active: 23.1 µM,
CN=c1scc(-c2cccs2)n1/N=C/c1ccc(O)c(O)c1O,"inconclusive: 9.2 µM [activator, partial curve]",
Oc1c(Cl)cc(Cl)cc1Sc1cc(Cl)cc(Cl)c1O,"inconclusive: 35.5 µM [activator, single point]",
O=C(NN1C(=O)/C(=C/c2ccc(O)c([N+](=O)[O-])c2)SC1=S)c1ccccc1Cl,"inconclusive: 0.0046 µM [activator, full curve, poor fit]",

# Ordered by formula weight (high to low): some entries from above.
Compound,Potency,re-replication activation
COc1ccc(NS(=O)(=O)c2cc(NC(=O)CCNC(C)=O)ccc2N2CCCCC2)cc1,inactive,
COc1ccc(C(=O)CSc2nnc(-c3cccs3)n2-c2ccccc2)cc1,inactive,
COC(CNC(=O)CCc1c(C)nc2c(-c3ccccc3)c(C)nn2c1C)OC,inactive,

# Continued:

Compound,Potency,re-replication activation
CC(=O)NC1(C(F)(F)F)NC(=O)N(CCc2ccccc2)C1=O (stereo unspecified),inactive,
COc1ccccc1N(CC(=O)N1CCCCCC1)S(C)(=O)=O,"inconclusive: 0.651 µM [activator, partial curve, poor fit]",
O=C(O)c1ccc2c(=O)n3c(nc2c1)/C(=C/c1cccc(Cl)c1Cl)CC3,inactive,
COc1ccccc1C1CCN(C(=O)c2ccc(C(C)(C)C)cc2)CC1,inactive,
COc1cc2c(c(OC)c1OC)-c1ccc(SC)c(=O)cc1C(NC(=O)C(F)(F)F)CC2 (stereo unspecified),active: 0.0206 µM,
COC(=O)c1c(N(S(C)(=O)=O)S(C)(=O)=O)sc2c1CCN(c1ncc(C(F)(F)F)cc1Cl)C2,inactive,
C/C(=N\NC(=O)COc1ccc(C)cc1C(C)C)c1cc2ccccc2o1,"inconclusive: 29.1 µM [activator, partial curve, poor fit]",
CN(CC(=O)Nc1cc(S(=O)(=O)N2CCCC2)ccc1Cl)Cc1nc2ccccc2c(=O)[nH]1,inactive,
O=C(CCCOc1ccccc1)Nc1nc2ccccc2[nH]1,inactive,
COc1cccc(CNC(=O)CCc2ccc(OC)c(OC)c2)c1,inactive,
CN1CCN(C(=O)c2cn(-c3ccccc3)nc2-c2cccnc2)CC1,"inconclusive: 9.2 µM [activator, partial curve]",
Cc1c(C(=O)N(C)C2CCCCC2)sc2ncnc(N3CCN(c4ccccc4F)CC3)c12,"inconclusive: 20.6 µM [activator, single point]",
COc1ccc([N+](=O)[O-])cc1NC(=O)c1ccc(N2C(=O)CCC2=O)cc1,"inconclusive: 4.61 µM [activator, full curve, poor fit]",
COc1ccc(CN2CCN(C(=O)c3cc(C4CC4)nn3-c3ccccc3)CC2)cc1F,,inconclusive: 84.2% [activator]
CCOC(=O)c1c(NC(=O)CSc2nnc3c(n2)[nH]c2ccccc23)sc2c1CCN(C)C2,"inconclusive: 29.1 µM [activator, single point]",
CCOC(=O)c1cc(C)sc1NC(=O)C(c1ccccc1)c1ccccc1,inactive,
Cc1cccc(N2CCN(C(=O)C3CCN(S(=O)(=O)N4CCOCC4)CC3)CC2)c1C,inactive,
CC(C)(C)NC(=O)c1ccc2c(c1)N(CC(=O)N1CCCCC1)C(=O)C(C)(C)O2,inactive,
CCCCOC(=O)c1ccc(NC(=O)c2ccccc2OC)cc1,"inconclusive: 16.4 µM [activator, partial curve, poor fit]",
CCOC(=O)c1c(-c2ccccc2)oc2cc(Br)c(O)c(C=O)c12,"inconclusive: 25.9 µM [activator, single point]",
Cn1c(CCN2CCCCCC2)nc2cc(NC(=O)Nc3ccccc3)ccc21,"inconclusive: 29.1 µM [activator, single point]",
CCCNS(=O)(=O)c1cccc(C(=O)OCc2cc(=O)oc3cc(OC)ccc23)c1,"inconclusive: 0.517 µM [activator, full curve, poor fit]",
Cc1ccc(C(=O)C2CCN(C(=S)NCCCOC(C)C)CC2)cc1,active: 14.6 µM,
